Measured values published in article PMC10456134.
These are yes or no findings as the source states them, for the method shown. Binding seen in cells or lysates may run through a third protein. Some results given as binding are weak or reduced against the parent protein; the word gives no strength. For part of these data: Where a sequence is shown, tags or fusion partners need not be part of it.

Protein sequences, listed by entry. Tags and fused reporters are not part of them.
UniProt P14618: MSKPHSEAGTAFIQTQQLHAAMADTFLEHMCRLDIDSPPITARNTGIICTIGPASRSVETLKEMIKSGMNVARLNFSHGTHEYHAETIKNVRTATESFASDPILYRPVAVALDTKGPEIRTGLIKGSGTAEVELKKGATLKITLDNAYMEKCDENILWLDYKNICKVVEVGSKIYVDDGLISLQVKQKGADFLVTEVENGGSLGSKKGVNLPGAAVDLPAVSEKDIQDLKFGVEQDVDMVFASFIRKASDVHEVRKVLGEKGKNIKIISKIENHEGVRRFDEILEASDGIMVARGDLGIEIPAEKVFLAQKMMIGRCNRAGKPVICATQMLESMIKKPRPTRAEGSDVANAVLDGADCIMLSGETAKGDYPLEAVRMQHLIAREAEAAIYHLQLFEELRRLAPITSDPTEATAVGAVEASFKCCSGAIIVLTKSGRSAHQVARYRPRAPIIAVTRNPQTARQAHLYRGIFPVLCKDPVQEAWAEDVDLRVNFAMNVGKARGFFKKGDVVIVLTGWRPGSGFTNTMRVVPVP

Tests used:
[1] = target: T1, Flag-tagged full-length USP4 (human) (UniProt Q13107); experiment: co-IP; HEK-293T cells co-transfected with Flag-tagged USP4 and Myc-tagged PKM2 constructs; whole cell lysates immunoprecipitated with Myc or Flag antibody, protein A/G PLUS-Agarose, immunoblot with the other tag's antibody; control serum
T1 sequence: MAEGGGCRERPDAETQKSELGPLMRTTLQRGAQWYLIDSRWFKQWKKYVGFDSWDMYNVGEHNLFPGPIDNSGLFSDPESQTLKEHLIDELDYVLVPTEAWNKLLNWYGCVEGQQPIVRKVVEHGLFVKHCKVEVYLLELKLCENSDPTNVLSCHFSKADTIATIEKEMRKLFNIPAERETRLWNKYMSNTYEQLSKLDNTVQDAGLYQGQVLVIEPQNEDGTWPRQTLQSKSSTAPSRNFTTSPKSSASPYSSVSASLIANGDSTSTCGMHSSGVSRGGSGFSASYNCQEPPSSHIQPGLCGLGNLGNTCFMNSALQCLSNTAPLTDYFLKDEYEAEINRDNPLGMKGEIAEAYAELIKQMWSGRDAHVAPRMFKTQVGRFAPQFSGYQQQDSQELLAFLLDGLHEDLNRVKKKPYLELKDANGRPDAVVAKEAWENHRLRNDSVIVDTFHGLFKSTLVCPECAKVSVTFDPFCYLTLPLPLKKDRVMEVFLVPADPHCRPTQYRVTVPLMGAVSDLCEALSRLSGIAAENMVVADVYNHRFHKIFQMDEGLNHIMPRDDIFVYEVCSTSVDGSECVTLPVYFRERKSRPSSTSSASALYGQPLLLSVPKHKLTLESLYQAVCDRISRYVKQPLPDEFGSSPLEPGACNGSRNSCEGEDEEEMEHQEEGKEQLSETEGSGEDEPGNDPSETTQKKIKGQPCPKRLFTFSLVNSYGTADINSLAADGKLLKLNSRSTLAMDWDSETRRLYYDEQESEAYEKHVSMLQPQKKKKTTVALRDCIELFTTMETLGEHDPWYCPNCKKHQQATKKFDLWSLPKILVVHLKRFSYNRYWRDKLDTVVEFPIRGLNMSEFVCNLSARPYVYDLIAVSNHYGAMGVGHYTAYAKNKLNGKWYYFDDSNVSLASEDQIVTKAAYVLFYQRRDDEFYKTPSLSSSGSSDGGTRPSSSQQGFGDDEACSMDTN

[2] = target: T2, endogenous USP4 (human (endogenous in AGS and HGC-27)) (UniProt Q13107); experiment: co-IP; endogenous proteins; AGS and HGC-27 cell lysates immunoprecipitated with the USP4 antibody, immunoblot with the PKM2 antibody; normal rabbit IgG as control
T2 sequence: T1 sequence

[3] = target: Myc-tagged full-length PKM2 (human) (UniProt P14618); experiment: co-IP; HEK-293T cells co-transfected with Flag-tagged USP4 and Myc-tagged PKM2 constructs; whole cell lysates immunoprecipitated with Myc or Flag antibody, protein A/G PLUS-Agarose, immunoblot with the other tag's antibody; control serum

Myc-tagged full-length PKM2 (from UniProt P14618 1-531) (enzyme)
binding [1]: binds

endogenous PKM2 (from UniProt P14618 1-531) (enzyme)
binding [2]: binds

B1: Flag-tagged full-length USP4 (enzyme, UniProt Q13107 1-963)
chain: T1 sequence
binding [3]: binds
